In the supplement of paper PMC11732987, “Enantioselective OTUD7B fragment discovery through chemoproteomics screening and high-throughput optimisation” (Communications Chemistry, 2025):
This is one part of the list. The data scatter; read single values as rough.

The chains behind the UniProt entries cited, without tags or fusion partners. Where a name states a change or a piece, a line headed by the entry shows the natural chain unless it says otherwise. Residues count along the entry.
UniProt Q14204, whole entry, looked up: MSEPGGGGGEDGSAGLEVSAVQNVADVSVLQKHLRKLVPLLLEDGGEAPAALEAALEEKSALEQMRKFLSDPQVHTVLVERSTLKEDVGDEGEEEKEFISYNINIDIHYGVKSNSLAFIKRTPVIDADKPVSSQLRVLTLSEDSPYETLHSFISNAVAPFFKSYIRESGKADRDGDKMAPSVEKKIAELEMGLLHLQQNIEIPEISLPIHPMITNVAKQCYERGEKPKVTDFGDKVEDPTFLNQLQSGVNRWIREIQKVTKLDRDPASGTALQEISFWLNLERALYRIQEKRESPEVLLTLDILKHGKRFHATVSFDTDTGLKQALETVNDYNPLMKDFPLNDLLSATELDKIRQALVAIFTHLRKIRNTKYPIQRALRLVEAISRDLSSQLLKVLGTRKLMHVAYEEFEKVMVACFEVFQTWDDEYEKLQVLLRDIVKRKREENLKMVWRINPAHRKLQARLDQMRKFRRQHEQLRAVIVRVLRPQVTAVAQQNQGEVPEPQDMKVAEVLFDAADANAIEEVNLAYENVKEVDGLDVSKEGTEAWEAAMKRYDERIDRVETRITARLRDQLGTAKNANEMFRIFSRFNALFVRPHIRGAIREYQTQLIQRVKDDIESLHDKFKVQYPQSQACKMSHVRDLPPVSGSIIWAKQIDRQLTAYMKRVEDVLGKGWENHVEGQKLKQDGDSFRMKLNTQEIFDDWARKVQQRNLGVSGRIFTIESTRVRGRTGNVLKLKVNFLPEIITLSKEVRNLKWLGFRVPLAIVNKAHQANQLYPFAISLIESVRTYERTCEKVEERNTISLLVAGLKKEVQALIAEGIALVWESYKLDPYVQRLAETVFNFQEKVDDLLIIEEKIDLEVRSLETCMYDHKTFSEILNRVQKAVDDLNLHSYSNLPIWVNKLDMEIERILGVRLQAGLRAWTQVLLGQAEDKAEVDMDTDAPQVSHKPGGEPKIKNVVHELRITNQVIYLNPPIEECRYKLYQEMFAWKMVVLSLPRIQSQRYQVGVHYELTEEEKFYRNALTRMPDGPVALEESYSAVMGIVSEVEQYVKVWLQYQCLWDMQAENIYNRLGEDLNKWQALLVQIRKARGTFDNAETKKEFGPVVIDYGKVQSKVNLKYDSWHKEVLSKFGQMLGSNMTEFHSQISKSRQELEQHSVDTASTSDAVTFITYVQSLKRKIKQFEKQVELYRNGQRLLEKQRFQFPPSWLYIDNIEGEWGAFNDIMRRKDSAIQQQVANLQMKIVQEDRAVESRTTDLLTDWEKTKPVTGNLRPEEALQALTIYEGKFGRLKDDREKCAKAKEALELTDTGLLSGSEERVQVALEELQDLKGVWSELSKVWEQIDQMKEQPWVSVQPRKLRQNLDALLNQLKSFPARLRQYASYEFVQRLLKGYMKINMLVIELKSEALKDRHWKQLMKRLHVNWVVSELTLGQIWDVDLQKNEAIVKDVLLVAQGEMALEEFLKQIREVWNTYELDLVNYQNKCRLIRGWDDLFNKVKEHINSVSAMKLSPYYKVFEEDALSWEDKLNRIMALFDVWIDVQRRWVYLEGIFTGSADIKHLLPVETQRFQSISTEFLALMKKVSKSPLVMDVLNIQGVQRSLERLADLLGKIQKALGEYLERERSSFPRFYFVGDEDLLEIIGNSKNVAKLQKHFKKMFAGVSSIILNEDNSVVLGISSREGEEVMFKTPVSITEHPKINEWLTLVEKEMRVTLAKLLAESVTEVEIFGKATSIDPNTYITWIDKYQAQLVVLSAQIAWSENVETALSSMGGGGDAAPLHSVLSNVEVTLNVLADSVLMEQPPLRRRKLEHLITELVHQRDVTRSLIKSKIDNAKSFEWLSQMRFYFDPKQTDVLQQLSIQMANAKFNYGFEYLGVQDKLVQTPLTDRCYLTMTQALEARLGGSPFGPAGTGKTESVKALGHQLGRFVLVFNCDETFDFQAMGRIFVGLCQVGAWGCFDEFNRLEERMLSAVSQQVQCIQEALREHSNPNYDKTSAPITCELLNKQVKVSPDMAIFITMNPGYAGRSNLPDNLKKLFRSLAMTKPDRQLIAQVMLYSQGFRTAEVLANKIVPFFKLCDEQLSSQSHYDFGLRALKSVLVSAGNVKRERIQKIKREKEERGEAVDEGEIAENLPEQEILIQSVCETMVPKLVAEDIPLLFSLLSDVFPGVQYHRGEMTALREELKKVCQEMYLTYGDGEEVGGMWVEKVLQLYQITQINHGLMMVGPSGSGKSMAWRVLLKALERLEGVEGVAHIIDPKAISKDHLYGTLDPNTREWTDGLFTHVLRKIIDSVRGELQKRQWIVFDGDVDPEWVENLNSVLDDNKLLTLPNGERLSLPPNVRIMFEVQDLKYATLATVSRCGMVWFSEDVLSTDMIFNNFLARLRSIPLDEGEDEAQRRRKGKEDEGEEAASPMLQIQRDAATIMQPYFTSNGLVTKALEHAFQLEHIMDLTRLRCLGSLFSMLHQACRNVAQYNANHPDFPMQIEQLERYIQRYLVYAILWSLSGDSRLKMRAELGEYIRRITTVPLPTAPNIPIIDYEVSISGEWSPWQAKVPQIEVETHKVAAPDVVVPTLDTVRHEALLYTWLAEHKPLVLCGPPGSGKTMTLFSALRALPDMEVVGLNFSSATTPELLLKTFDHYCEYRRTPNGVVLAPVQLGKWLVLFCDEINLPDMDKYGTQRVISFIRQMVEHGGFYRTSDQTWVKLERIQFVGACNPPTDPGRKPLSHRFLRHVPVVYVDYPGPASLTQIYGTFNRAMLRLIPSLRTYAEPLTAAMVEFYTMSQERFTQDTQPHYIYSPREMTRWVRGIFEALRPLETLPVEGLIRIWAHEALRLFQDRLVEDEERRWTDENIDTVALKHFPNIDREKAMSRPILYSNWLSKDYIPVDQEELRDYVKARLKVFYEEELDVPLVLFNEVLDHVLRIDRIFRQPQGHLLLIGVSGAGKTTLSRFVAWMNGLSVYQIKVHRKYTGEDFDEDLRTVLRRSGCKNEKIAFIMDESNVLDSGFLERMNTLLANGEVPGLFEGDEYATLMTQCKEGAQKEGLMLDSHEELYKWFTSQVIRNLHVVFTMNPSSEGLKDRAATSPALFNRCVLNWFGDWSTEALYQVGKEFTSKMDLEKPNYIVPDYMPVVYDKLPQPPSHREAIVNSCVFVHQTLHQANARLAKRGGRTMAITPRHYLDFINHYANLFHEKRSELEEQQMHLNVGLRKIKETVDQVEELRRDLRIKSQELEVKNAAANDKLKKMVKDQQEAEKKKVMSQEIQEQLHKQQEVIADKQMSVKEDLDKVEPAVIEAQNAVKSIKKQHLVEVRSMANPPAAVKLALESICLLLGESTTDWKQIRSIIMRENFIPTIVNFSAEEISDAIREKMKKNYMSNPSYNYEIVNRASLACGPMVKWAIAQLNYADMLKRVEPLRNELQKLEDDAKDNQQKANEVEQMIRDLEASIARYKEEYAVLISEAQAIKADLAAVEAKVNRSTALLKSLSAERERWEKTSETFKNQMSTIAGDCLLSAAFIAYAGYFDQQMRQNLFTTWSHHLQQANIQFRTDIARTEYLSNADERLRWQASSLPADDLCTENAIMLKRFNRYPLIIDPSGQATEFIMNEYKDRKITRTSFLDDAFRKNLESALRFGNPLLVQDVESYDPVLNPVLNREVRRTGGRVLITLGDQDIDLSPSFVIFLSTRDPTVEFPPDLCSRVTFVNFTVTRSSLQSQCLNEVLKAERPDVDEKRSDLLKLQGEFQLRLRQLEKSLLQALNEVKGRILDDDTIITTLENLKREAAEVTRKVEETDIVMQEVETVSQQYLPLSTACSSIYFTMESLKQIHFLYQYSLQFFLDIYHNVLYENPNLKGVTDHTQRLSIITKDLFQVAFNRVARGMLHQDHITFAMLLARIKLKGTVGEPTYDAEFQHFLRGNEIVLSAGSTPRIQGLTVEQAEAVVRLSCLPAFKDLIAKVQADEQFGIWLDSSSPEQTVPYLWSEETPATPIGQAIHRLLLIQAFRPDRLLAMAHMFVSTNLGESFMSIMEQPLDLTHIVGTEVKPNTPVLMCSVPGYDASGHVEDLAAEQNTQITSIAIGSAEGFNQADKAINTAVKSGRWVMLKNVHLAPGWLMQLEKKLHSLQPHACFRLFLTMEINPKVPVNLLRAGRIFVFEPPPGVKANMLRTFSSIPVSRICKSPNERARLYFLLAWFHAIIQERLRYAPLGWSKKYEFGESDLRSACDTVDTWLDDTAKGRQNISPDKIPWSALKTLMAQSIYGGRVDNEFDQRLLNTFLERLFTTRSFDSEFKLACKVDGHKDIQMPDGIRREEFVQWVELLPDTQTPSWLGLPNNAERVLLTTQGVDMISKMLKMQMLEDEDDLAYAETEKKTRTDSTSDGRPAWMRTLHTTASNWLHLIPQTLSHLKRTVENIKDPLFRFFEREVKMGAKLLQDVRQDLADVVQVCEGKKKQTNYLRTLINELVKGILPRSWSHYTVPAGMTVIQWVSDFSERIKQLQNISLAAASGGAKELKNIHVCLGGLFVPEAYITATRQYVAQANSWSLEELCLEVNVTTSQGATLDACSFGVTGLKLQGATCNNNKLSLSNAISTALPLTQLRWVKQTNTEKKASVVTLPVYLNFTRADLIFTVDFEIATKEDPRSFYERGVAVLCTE
UniProt P24534, 140-163: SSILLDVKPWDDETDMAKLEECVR
UniProt Q5VYK3: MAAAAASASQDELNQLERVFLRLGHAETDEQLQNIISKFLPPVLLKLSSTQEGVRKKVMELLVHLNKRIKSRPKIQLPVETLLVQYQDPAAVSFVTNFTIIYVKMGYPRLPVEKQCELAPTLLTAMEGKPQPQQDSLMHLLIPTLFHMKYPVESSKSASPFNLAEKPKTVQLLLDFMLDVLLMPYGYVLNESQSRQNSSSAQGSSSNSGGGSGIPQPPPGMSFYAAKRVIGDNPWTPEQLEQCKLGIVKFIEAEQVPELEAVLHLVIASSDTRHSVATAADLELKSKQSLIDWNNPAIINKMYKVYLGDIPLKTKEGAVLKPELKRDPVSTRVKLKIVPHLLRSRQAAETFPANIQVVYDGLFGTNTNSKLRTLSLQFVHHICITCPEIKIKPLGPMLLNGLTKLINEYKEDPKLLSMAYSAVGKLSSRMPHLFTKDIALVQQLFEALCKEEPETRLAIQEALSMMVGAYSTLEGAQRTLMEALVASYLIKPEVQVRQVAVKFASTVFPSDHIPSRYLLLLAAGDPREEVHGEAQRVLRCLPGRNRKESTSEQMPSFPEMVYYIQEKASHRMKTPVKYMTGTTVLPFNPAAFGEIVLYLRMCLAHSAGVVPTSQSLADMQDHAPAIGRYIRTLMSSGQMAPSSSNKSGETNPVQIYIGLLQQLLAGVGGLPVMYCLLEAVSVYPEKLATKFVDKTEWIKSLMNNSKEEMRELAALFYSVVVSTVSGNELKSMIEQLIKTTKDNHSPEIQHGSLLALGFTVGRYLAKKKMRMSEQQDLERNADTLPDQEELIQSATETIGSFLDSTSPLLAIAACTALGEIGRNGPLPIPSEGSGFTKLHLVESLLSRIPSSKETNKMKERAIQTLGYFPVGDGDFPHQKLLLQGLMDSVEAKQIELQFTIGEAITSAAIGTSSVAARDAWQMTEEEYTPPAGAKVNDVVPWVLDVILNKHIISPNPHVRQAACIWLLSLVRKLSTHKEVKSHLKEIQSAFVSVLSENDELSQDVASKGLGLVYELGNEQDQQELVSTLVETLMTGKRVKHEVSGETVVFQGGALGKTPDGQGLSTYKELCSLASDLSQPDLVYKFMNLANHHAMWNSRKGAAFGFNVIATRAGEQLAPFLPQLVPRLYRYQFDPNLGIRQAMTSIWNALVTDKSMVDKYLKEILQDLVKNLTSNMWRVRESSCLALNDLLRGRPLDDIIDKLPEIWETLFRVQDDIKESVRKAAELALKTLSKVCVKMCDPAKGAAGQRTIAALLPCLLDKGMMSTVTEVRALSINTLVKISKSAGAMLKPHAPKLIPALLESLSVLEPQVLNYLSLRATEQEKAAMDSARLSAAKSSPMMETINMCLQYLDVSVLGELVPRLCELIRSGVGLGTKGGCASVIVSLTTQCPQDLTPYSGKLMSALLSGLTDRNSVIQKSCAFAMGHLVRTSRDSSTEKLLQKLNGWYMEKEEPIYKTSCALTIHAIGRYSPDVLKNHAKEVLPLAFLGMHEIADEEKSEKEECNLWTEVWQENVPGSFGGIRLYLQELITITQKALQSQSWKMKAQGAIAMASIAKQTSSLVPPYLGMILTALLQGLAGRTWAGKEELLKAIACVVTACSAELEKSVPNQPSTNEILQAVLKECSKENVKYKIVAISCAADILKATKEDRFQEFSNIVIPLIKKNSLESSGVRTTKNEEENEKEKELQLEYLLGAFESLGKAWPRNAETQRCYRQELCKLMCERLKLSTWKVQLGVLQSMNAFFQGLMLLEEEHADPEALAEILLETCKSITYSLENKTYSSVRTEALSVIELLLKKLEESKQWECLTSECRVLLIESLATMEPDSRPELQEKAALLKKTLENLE

What was measured:
[1] = compound: ClCC(=O)N[C@@H]1CCCc2ccccc12; experiment: log2 mean competition ratio of IA-DTB cysteine labelling (DMSO/compound) (log2 ratio); higher = stronger cysteine engagement by compound; conditions: treatment time: 4 h, cell line lysate: HEK293T
Experimental: (§1)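 IA-DTB competitive cysteine chemoproteomics in HEK293T RIPA lysate. Lysates were treated with compound 29 or 30 at 50 or 200 µM for 4 h, then IA-DTB (500 µM, 1 h), trypsin-digested, NeutrAvidin-enriched and analysed by diaPASEF. Competition ratio = intensity DMSO / intensity compound (n=4 treated, n=64 DMSO); binding: mean log2 CR ≥ 1 and p ≤ 0.05 plus QC filters. Target is the cysteine site.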

[2] = compound: ClCC(=O)N[C@H]1CCCc2ccccc12; experiment: as above; conditions: treatment time: 4 h, cell line lysate: HEK293T
Experimental: as §1

Target | log2 mean competition ratio ([1]; 50 µM) | log2 mean competition ratio ([1]; 200 µM) | log2 mean competition ratio ([2]; 50 µM) | log2 mean competition ratio ([2]; 200 µM)
DYNC1LI1 C247 (UniProt Q9Y6G9) | -0.0834 | 0.0277 | -0.317 | -0.232
DYNC1H1 C792 (UniProt Q14204) | 0.0721 | 0.0697 | -0.244 | -0.128
DST C5527 (UniProt Q03001) | 0.109 | -0.424 | -0.229 | -0.274
DTX3 C272 | 0.218 | -0.174 | 0.271 | 0.255
EBF3 C161 | -0.0144 | 0.506 | 0.703 | 0.227
ECT2 C221 (UniProt Q9H8V3) | 0.00854 | -0.155 | -0.00267 | -0.0958
EEF1B2 C161 (UniProt P24534) | 0.414 | 0.397 | 0.594 | 0.381
EIF4G3 C461 | -0.114 | -0.233 | 0.181 | -0.106
DSP C1499 (UniProt P15924) | -0.241 | 0.101 | -0.235 | -0.0419
DYNC1H1 C2712 (UniProt Q14204) | 0.201 | -0.00462 | 0.538 | -0.116
DSC3 C792 | -0.0976 | 0.119 | -0.107 | 0.241
EIF2S1 C218 (UniProt P05198) | 0.0692 | -0.0582 | -0.119 | -0.135
E2F8 C96 | -0.0464 | 0.0213 | -0.518 | -0.287
ECPAS C1070 (UniProt Q5VYK3) | -0.119 | -0.234 | -0.139 | -0.209
EGFR C1058 (UniProt P00533) | 0.195 | 0.283 | -0.132 | 0.458
DYNC2H1 C1970 (UniProt Q8NCM8) | 0.295 | -0.122 | -0.216 | -0.0404
DYNC1H1 C3693 (UniProt Q14204) | -0.128 | -0.277 | 0.216 | -0.251
EIF3L C417 (UniProt Q9Y262) | -0.152 | -0.246 | -0.0795 | -0.056
DYNLT3 C8 (UniProt P51808) | 0.0352 | -0.169 | -0.514 | -0.324
DTL C559 (UniProt Q9NZJ0) | 0.0949 | 0.616 | -0.129 | 0.378
DST C5394 (UniProt Q03001) | 0.204 | 0.286 | 0.15 | 0.169
EIF3C C500 (UniProt Q99613) | -0.28 | -0.0114 | -0.126 | 0.12
EIF4A1 C66 | -0.143 | -0.491 | 0.521 | -0.0643

An excerpt of these results, tab-delimited:
Target	log2 mean competition ratio ([1]; 50 µM)	log2 mean competition ratio ([1]; 200 µM)	log2 mean competition ratio ([2]; 50 µM)	log2 mean competition ratio ([2]; 200 µM)
DYNLT3 C8 (UniProt P51808)	0.0352	-0.169	-0.514	-0.324
DTL C559 (UniProt Q9NZJ0)	0.0949	0.616	-0.129	0.378
